Laboratory results published in patent publication US20030087799A1, “Modulation” (priority 2001, published 2003).

What was measured:
[1] = test system: SK mediated AHP currents (I-AHP) in dopaminergic neurons; assay type: cell-based, mouse
[2] = test system: T-type calcium channels (low voltage-activated calcium currents); assay type: cell-based, mouse

COCC(=O)O[C@]1(CCN(C)CCCc2nc3ccccc3[nH]2)CCc2cc(F)ccc2[C@@H]1C(C)C [mibefradil, Mibefradil]
Hill coefficient of I-AHP inhibition ([1]; mean dose-response): 1.8 | Hill coefficient of I-LVA inhibition ([2]; mean dose-response): 2.3

[Ni+2] [nickel]
Hill coefficient of I-AHP inhibition [1]: 1.3 | Hill coefficient of I-LVA inhibition [2]: 0.9

Where two headings read alike, the source gives them in different places.
